# Taken from: PubChem BioAssay AID652272 (Drosophila RNAi Screening Center, 2013)
# Aim: 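Genome-wide knock-down search for components of Hedgehog signalling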 (primary screen)
# System: Drosophila clone 8 (Cl8) cells
# Knock-down reagent: long dsRNA against Drosophila genes
# Detection: 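Firefly light from a Hedgehog-responsive ptc promoter reporter and Renilla reference light, both read on a plate reader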
# Scale: firefly Hh reporter signal: higher = more ptc reporter light; Renilla reference signal: higher = more Renilla control light
# Call rule: 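Called a hit if the two-replicate mean z-score lies below -2 or above +3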
# Calls: active = hit: reporter lowered or raised; inactive = not a hit
# In all, the deposit lists about 21,000 reagents; this is a random part of those that have a named target and a result. In the full data, 503 (2.4%) got an active call. 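Raw plate light values, not normalised; calls rest on replicate z-scores that were not deposited; hits include reporter decreases as well as increases.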 No sequences are given here. Not stated in the record: the amount of reagent, the time to read-out.
Gene,PubChem SID,"firefly Hh reporter signal, replicate 1","firefly Hh reporter signal, replicate 2","firefly Hh reporter signal, replicate 3","Renilla reference signal, replicate 1","Renilla reference signal, replicate 2",activity call
CG9992,SID104200018,81368,81412,,1520,1255,inactive
CG17636,SID104200440,69297,1.63e5,,1722,7570,inactive
RpS15 (Ribosomal protein S15),SID104186943,31349,19030,,1653,2263,active
Ir67b (Ionotropic receptor 67b),SID104189668,76544,50597,62424,4131,4121,inactive
CG14453,SID104191502,1.77e5,8.10e5,1.42e5,5190,6035,inactive
CG1943,SID104192368,1.07e5,1.01e5,,4091,3148,inactive
AIF (Apoptosis inducing factor),SID104180488,1.12e5,66668,,4809,2726,inactive
nAChRbeta1 (nicotinic Acetylcholine Receptor beta1),SID104187889,1.56e5,2.69e5,,4167,11020,inactive
nAChRbeta1 (nicotinic Acetylcholine Receptor beta1),SID104188520,1.23e5,78282,,5393,3043,inactive
ttm50 (tiny tim 50),SID104198379,1.03e5,98169,,2315,2997,inactive
CG4982,SID104190257,5.07e5,68825,,3284,3284,inactive
Wnt2 (Wnt oncogene analog 2),SID104184952,1.25e5,2.92e5,,3031,10912,inactive
Wnt2 (Wnt oncogene analog 2),SID104187366,1.14e5,56195,,2964,4172,inactive
LysE (Lysozyme E),SID104188467,92636,47755,,3072,3492,inactive
nAChRalpha2 (nicotinic Acetylcholine Receptor alpha2),SID104196801,1.13e5,1.04e5,,4375,3668,inactive
CG7714,SID104196092,7.21e5,1.31e5,,35378,3616,inactive
lncRNA:CR43451 (long non-coding RNA:CR43451),SID104193144,54976,2.22e5,,12027,5565,inactive
Alp2 (Alkaline phosphatase 2),SID104184146,1.69e5,63624,,3693,5655,inactive
RpS23 (Ribosomal protein S23),SID104186961,37177,18473,,3449,1718,active
mRpL36 (mitochondrial ribosomal protein L36),SID104190129,28251,73661,,2281,5456,inactive
CG10996,SID104199155,95475,1.94e5,,2904,7357,inactive
PGRP-SB1 (Peptidoglycan recognition protein SB1),SID104190882,1.18e5,,,1010,3456,inactive
CG9123,SID104199948,1.01e5,2.11e5,,3730,10032,inactive
loj (logjam),SID104189583,1.02e5,74295,,5276,3095,inactive
Sfp53D (Seminal fluid protein 53D),SID104185417,1.16e5,2.28e5,,3368,8667,inactive
capu (cappuccino),SID104180000,5.67e5,1.46e5,,29960,6371,inactive
capu (cappuccino),SID104180001,5.26e5,1.34e5,,32690,8485,active
capu (cappuccino),SID104180226,1.34e5,57637,,3344,5819,inactive
capu (cappuccino),SID104180599,1.14e5,1.13e5,,4268,5117,inactive
CG32856,SID104192916,51767,1.95e5,,10850,4572,inactive
CG5906,SID104190349,48576,26528,52012,2620,3472,inactive
Cpr66Cb (Cuticular protein 66Cb),SID104190561,60651,65466,,6740,4113,inactive
CG14237,SID104194523,90541,88186,,3510,2976,inactive
CG9270,SID104182974,70251,79649,,2704,3211,inactive
yl (yolkless),SID104200179,62244,1.74e5,,1696,7370,inactive
CG13282,SID104182046,84055,50551,,2508,5143,inactive
CARPB (Carbonic anhydrase-related protein B),SID104198229,1.41e5,1.31e5,,3233,3184,inactive
CARPB (Carbonic anhydrase-related protein B),SID104198230,85293,2.57e5,,2599,8528,inactive
CG13728,SID104189848,94934,,,4512,2843,inactive
CG6891,SID104199808,1.93e5,1.24e5,,4160,3234,inactive
CG14609,SID104192345,60373,79114,,2597,2594,inactive
CG33460,SID104185362,1.17e5,2.43e5,,3233,10178,inactive
Ork1 (Open rectifier K[+] channel 1),SID104200058,95778,87381,,2105,2032,inactive
h-cup (heineken-cup),SID104195765,93472,60544,,3872,1712,inactive
CG4161,SID104181722,86658,67142,,2324,6332,inactive
CG14227,SID104199376,6.50e5,1.15e5,,4864,4864,inactive
CG34038,SID104183831,1.09e5,1.98e5,,2928,8122,inactive
CG12645,SID104197643,72016,1.97e5,,1688,6880,inactive
CG15431,SID104180238,1.11e5,50013,,2896,5067,inactive
CG6191,SID104185730,49798,33187,,2076,1520,inactive
Ace (Acetylcholine esterase),SID104192751,48071,1.94e5,,10164,3656,inactive
Ace (Acetylcholine esterase),SID104193892,95440,91575,,4460,3971,inactive
CG14259,SID104194546,64490,1.03e5,,1816,3412,inactive
Dbct (Dihydrolipoamide branched chain transacylase E2),SID104199743,1.39e5,91370,,3074,2368,inactive
Ptp10D (Protein tyrosine phosphatase 10D),SID104200064,53677,2.40e5,,1554,8854,inactive
CG9471,SID104196291,57709,1.18e5,,1704,3266,inactive
VGlut (Vesicular glutamate transporter),SID104180525,1.57e5,7.15e5,1.41e5,3138,5110,inactive
